# Source: US20240358693A1, “METHODS OF TREATING PAIN” (Aisa Pharma, Inc., priority 2023, published 2024)
# For part of these data: At least one compound was matched to its structure with a doubt left. Some entries share one result that the patent states for a list of compounds.
# Assays:
# Type in all cases: in vivo, human
# [1] = tested on: participants with SSc-RP; test: Frequency of weekly RP attacks (all attacks; primary efficacy endpoint); conditions: pooled cilnidipine monotherapy (n=3), pooled cilnidipine plus tadalafil (n=4), pooled 10 mg or 20 mg with or without tadalafil
# From the text: (§1) Percent change from baseline evaluation for frequency of weekly RP attacks were or will be used as the primary efficacy variable. The sponsor-developed participant-informed diary will be used to record data. Frequency of weekly RP attacks is defined as the total number of RP attacks divided by the number of days with available diary data within the last 7 days of each dosing period then multiplied by 7. Total number of RP attacks during the last 7 days of screening period divided by the number of days with available data then multiplied by 7 will be used as baseline for the analysis of all periods. The variable will be calculated as follows:
# Percentage change={(weekly RP attacks for the last 7 days of each dosing period−Baseline weekly RP attacks)/Baseline weekly RP attacks}*100%. […]
# Percent change from baseline evaluation for frequency of weekly RP attacks were the primary efficacy endpoint. […] Other efficacy endpoints of continuous variables were analyzed using similar methodology. […] In addition, the final analysis assessed whether in this study of severe Raynaud's disease participants, the minimally important difference, previously concluded of 14-15 points on the 100 point RCS scale had been achieved in the cilnidipine dose group. It also recorded the percentage of participants achieving a PASS (34 point difference from baseline on a 0-100 VAS) in each treatment group.
# [2] = tested on: participants with Raynaud's Phenomenon secondary mostly to systemic sclerosis (SSc-RP); test: Frequency of weekly symptomatic RP attacks (patient diary), Phase 2a study Part A
# Protocol: A randomized, placebo-controlled phase 2a study was performed and is in progress to assess the safety and efficacy of cilnidipine (10 mg and 20 mg) alone and in combination with 5 mg tadalafil, in participants with diagnosis of scleroderma and/or secondary Raynaud's disease.
# The relevant metrics measured by this tool daily are: • Study medication • SSc-RP symptoms (Reporting an attack including duration of attack) • Severity of the attack considering all symptoms of the attack e.g., tingling, numbness, pain, color changes (VAS 0-10 cm scale) • Participant's location at the time of the attack (inside home/outside home) • Selecting symptoms experienced during the attack (tingling, numbness, pain, color changes, other) • Pain rating during the attack (11-point Likert scale) • The RCS based on how much difficulty participants had with Raynaud's today, how many attacks the participant had, and how long they lasted. Participants will also be asked to consider how much pain, numbness, or other symptoms the Raynaud's caused in fingers (including painful sores), and how much the Raynaud's alone affected the use of hands today (VAS 0-10 cm scale).
# as §1
# Percentage change={(weekly RP attacks for the last 7 days of each dosing period−Baseline weekly RP attacks)/Baseline weekly RP attacks}*100%.
# Absolute change=weekly RP attacks for the last 7 days of each dosing period−Baseline weekly RP attacks […]
# [3] = tested on: participants with SSc-RP; test: Average duration of weekly RP attacks (minutes); conditions: cilnidipine or cilnidipine plus tadalafil (n=7); tadalafil monotherapy (n=2)
# From the text: The absolute change in average duration of weekly RP attacks from baseline to the end of each dosing period was and will be a secondary outcome variable. The sponsor-developed participant-informed diary was and will be used to record data. Average duration of weekly RP attacks is defined as the total duration of RP attacks divided by total number of RP attacks within the last 7 days of each dosing period. Total duration of RP attacks during the last 7 days of screening period divided by the total number of RP attacks will be used as baseline for the analysis of all periods. The variable will be calculated similar to frequency data as before.
# [4] = tested on: participants with SSc-RP; test: Summary of data: dose response / overall response, Phase 2a study Part A; conditions: printed 'Tadalafil 10 mg helps'
# From the text: Table S provides a summary of data:
SMILES,"reduction in the weekly frequency of typical attacks, pooled datasets [1]","weekly frequency of Raynaud attacks, direction of change ([2]; all cilnidipine and cilnidipine plus tadalafil treated patients (n=7))","weekly frequency of attacks, direction of change ([2]; baseline RCS >5.0)",efficacy on frequency of attacks ([2]; tadalafil monotherapy at a 5 mg dose (n=2)),"duration of Raynaud attacks, direction of change [3]",Effect of tadalafil (summary) [4]
"COCCOC(=O)C1=C(C)NC(C)=C(C(=O)OC/C=C/c2ccccc2)C1c1cccc([N+](=O)[O-])c1 (stereo not drawn) [Cilnidipine, cilnidipine]",−33 to −40%,,,,,
"CN1CC(=O)N2[C@H](c3ccc4c(c3)OCO4)c3[nH]c4ccccc4c3C[C@@H]2C1=O [Tadalafil, tadalafil]",,increase,increased,ineffective,increase,mg helps
